Measured data: PubChem BioAssay AID504791 (Drosophila RNAi Screening Center, 2011)

Aim: 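Genes whose knock-down strengthens or weakens small-RNA reporter silencing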 (primary screen)
System: Drosophila S2-derived reporter cells
Reagents: long dsRNA against Drosophila genes, about 150-250 ng dsRNA per well (siRNA assay); about 80-120 ng (miRNA assay)
Duration: about 5 days (siRNA assay); about 4 days (miRNA assay)
Challenge: copper sulfate induction of reporters: 25 µM (siRNA assay); 200 mM stated (miRNA assay), 1-2 days before reading
Read-out: 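Per-well ratio of Renilla over firefly light, expressed relative to that plate's average ratio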
Scale: siRNA reporter hit score: higher = 3 marks a strong hit with raised ratio; -3 a strong hit with lowered ratio
Rule for the call: 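a well was a first-pass pick when its plate-scaled ratio rose above 1.5 (siRNA assay) or 1.6 (miRNA assay), or dropped below 0.6; a gene counted only if two separate dsRNAs agreed on retest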
The screen tested about 23,000 reagents; shown is an unselected part of those with a known target gene and a result. Of all reagents, 199 (0.86%) were called active. 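Plate-scaled ratios behind the calls are not deposited; printed light signals are raw; many rows marked increased or decreased are still called inactive.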 Unmarked entries are inactive. Names joined by + are all predicted targets of the reagent.

Gene,amplicon,siRNA reporter hit score,miRNA reporter change,"stable assay Renilla, run 1 (luminescence)","stable assay firefly, run 1 (luminescence)"
CG17752,DRSC15262,,,6487,2.88e5
CG1724,DRSC20548,,,6384,4.67e5
CG5478,DRSC15814,,,7559,4.71e5
inaF-B,DRSC18903,,,5792,3.87e5
CG14712,DRSC14935,,,8563,5.05e5
Itgbn,DRSC03493,,,8484,5.23e5
CG13991,DRSC02323,,,7954,4.12e5
CG11698,DRSC14355,,,4955,5.41e5
CG14088,DRSC10092,,,6872,4.45e5
CG17959,DRSC18142,,,6283,4.16e5
mub,DRSC11896,,,9187,3.61e5
CG12853,DRSC06193,,,3699,4.32e5
CG7409,DRSC10842,,,5684,4.53e5
CG42365,DRSC04266,,,7362,5.16e5
CG5250,DRSC15752,,,7979,4.48e5
Spn42Dd,DRSC05024,,,7015,5.27e5
Spn42Dd,DRSC22060,,,9514,6.20e5
CG4681,DRSC04481,,,5962,3.09e5
Pcyt1,DRSC08157,,,6504,2.89e5
pim,DRSC03591,,,59202,8.72e5
eIF4G1,DRSC17218,,,9247,3.64e5
CG4496,DRSC02753,,,7447,3.58e5
Acsl,DRSC07252,,,7710,3.06e5
CG8360,DRSC03085,,,3767,4.96e5
CG30279 (retired record),DRSC22417,,,5907,5.84e5
CG32821 (retired record),DRSC22544,,,4819,4.79e5
CG12682,DRSC17873,,,5831,2.60e5
Oatp33Ea,DRSC02859,,,31270,6.03e5
CR32028 (retired record),DRSC22959,,,4539,4.90e5
Cdk5alpha,DRSC03290,,,6444,3.97e5
Cdk5alpha,DRSC23301,,,7318,3.89e5
CG10660,DRSC09769,,,10901,5.01e5
CG17026,DRSC10237,,,4299,3.80e5
FucTA,DRSC10733,,,7206,2.88e5
CG10588,DRSC11628,,,6599,4.25e5
RhoGAPp190,DRSC20097,,,6864,6.97e5
RhoGAPp190,DRSC20099,,,8895,4.49e5
Rsph1,DRSC02864,,,9451,4.66e5
CG8833,DRSC11050,,,10713,4.80e5
Cdc2rk,DRSC07590,,,6279,3.89e5
scro,DRSC17099,,,8675,5.22e5
scro,DRSC17102,,,6495,5.05e5
CG10939,DRSC06019,,,12259,5.95e5
CG10939,DRSC21734,,,7890,3.88e5
Mtr4,DRSC03560,,reporter ratio raised past the hit cutoff,9291,1.54e6
Sr-CIV,DRSC00575,,,7054,3.86e5
raptor,DRSC18359,3 (active),reporter ratio lowered past the hit cutoff,4144,2.91e5
bgm,DRSC03495,,,9158,1.86e6
CG14273,DRSC02377,,,6555,3.03e5
CG12914,DRSC06229,,,5395,3.20e5
Hsp70Aa + Hsp70Bb + Hsp70Ba + 3 more,DRSC15380,,,5198,3.57e5
CG3528,DRSC00611,,,8900,3.72e5
CG3528,DRSC26034,,reporter ratio raised past the hit cutoff,,
CG33221 (retired record),DRSC21201,,,4718,3.70e5
CG31267,DRSC15748,,,7162,3.70e5
CG33306,DRSC01899,,,7635,1.57e6
Nedd8,DRSC02092,,,7275,5.16e5
CG13223,DRSC06344,,,7301,3.70e5
hll,DRSC01944,,,8468,1.83e6
IKKepsilon,DRSC03550,,,6670,3.39e5
CG5934,DRSC15922,,,6064,3.77e5
PolZ2,DRSC12325,,,6871,3.94e5
Ref2,DRSC02563,,,6791,3.54e5
CG2111,DRSC18205,,,5231,5.06e5
lbe,DRSC16985,,,7143,3.09e5
CG9757,DRSC16557,,,6814,4.13e5
CG9757,DRSC21707,,,9334,5.11e5
Bre1,DRSC09742,,,9848,6.09e5
Nph,DRSC16342,,,6043,4.19e5
CG12862,DRSC06202,,,5688,3.59e5
Pgm1,DRSC10490,,,8315,2.82e5
Lk6,DRSC12867,,,4771,3.24e5
Lk6,DRSC16728,,,7380,5.64e5
CG13311,DRSC09982,,,6555,4.04e5
Glys,DRSC16130,,,8044,4.11e5
Phyhd1,DRSC14911,,,6984,4.96e5
5-HT2A,DRSC11990,,,9062,3.80e5
CG14104,DRSC10106,,,8136,4.65e5
Frq2,DRSC20245,,,5546,3.76e5
Nnf1a,DRSC06394,,,6115,5.05e5
CG5402,DRSC15792,,,6194,6.07e5
ImpL1,DRSC11197,,,7715,4.85e5
LManIII,DRSC03221,,,6659,3.66e5

Reformatted: results already given.
| Gene | amplicon | siRNA reporter hit score | miRNA reporter change | stable assay Renilla, run 1 (luminescence) | stable assay firefly, run 1 (luminescence) |
| --- | --- | --- | --- | --- | --- |
| FucTA | DRSC10733 | – | – | 7206 | 2.88e5 |
| CG10588 | DRSC11628 | – | – | 6599 | 4.25e5 |
| RhoGAPp190 | DRSC20097 | – | – | 6864 | 6.97e5 |
| RhoGAPp190 | DRSC20099 | – | – | 8895 | 4.49e5 |
| Rsph1 | DRSC02864 | – | – | 9451 | 4.66e5 |
| CG8833 | DRSC11050 | – | – | 10713 | 4.80e5 |
| Cdc2rk | DRSC07590 | – | – | 6279 | 3.89e5 |
| scro | DRSC17099 | – | – | 8675 | 5.22e5 |
| scro | DRSC17102 | – | – | 6495 | 5.05e5 |
| CG10939 | DRSC06019 | – | – | 12259 | 5.95e5 |
| CG10939 | DRSC21734 | – | – | 7890 | 3.88e5 |
| Mtr4 | DRSC03560 | – | reporter ratio raised past the hit cutoff | 9291 | 1.54e6 |
| Sr-CIV | DRSC00575 | – | – | 7054 | 3.86e5 |
